Measurements as given in PubChem BioAssay AID1487 (National Center for Advancing Translational Sciences (NCATS), 2009).
The list shows a part of the results. Further columns of the screen follow, without active or inactive calls. Compounds called inactive in the main read-out are mostly missing here. Words in brackets tell the shape of the fitted curve; partial curves, single points and poor fits give uncertain potencies.

Assay: qHTS Assay for Modulators of Lamin A Splicing
Conditions: HeLa LMNA splicing GFP/RFP minigene ratio, 48 h
How it was run: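 Read-out is the ratio of GFP to DsRed2 object intensity, acquired by 488 nm laser-scanning cytometry on HeLa lamin A-EGFP minigene reporter cells. Compound incubation 48 hrs at 37 °C in Opti-MEM with 2% FBS; DMSO 0.5% final.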

[1] = measured here: GFP splicing reporter channel
[2] = measured here: RFP viability control channel

CC(C)Cc1nc2oc3c(Cl)ncnc3c2c2c1CCC2
AC50 [1]: 31.6 µM [falling, single point] | AC50 [2]: 25.1 µM [falling, single point]

CC(C)OC(=O)CC(=O)CSc1nc2c(cc1C#N)CCC2
AC50 [1]: 11.2 µM [rising, partial curve, poor fit]

Cc1ccnc(NS(=O)(=O)c2cc(C(F)(F)F)ccc2Cl)c1
AC50 [1]: 0.0355 µM [falling, full curve] | AC50 [2]: 0.0224 µM [falling, full curve]

COc1cccc(OCCn2cc(C(=O)c3ccco3)c3ccccc32)c1
AC50 [2]: 12.6 µM [rising, single point]

CC(=O)c1cc2ccccc2oc1=O
AC50 [1]: 0.158 µM [falling, single point]

CN(CC(=O)NCCc1ccccc1)S(=O)(=O)c1cccc2nsnc12
AC50 [2]: 22.4 µM [rising, single point]

COc1cc(CNc2cccc(C(=O)O)c2)cc(Br)c1OCC(=O)NC(C)(C)C
AC50 [1]: 2 µM [falling, full curve] | AC50 [2]: 2.51 µM [falling, full curve, poor fit]

CCCCC1=CC2=C(c3ccco3)C(=O)C(C)(OC(=O)c3ccc(OC)cc3)C(=O)C2=CN1c1ccc(OC)cc1 (stereo not drawn)
AC50 [2]: 0.891 µM [falling, single point]

c1ccc2c(c1)CC(N1CCN(c3cccc4c3OCCO4)CC1)C2
AC50 [2]: 0.00447 µM [falling, full curve, poor fit]

O=C(Nc1cccc(C(=O)N2CCN(c3ccc(F)cc3)CC2)c1)c1nsc2ccccc12
AC50 [1]: 35.5 µM [falling, single point] | AC50 [2]: 35.5 µM [falling, single point]

CC(Cc1cccs1)NC(=S)Nc1ccccc1 (stereo not drawn)
AC50 [1]: 11.2 µM [rising, single point] | AC50 [2]: 15.8 µM [rising, single point]

CCOC(=O)c1[nH]c(C)c(C(=O)NCc2ccco2)c1C
AC50 [1]: 22.4 µM [falling, partial curve, poor fit] | AC50 [2]: 0.00501 µM [falling, full curve, poor fit]

CC(C)c1nc(SCC(=O)N2c3ccccc3CC2C)c2ccccc2n1 (stereo not drawn)
AC50 [2]: 20 µM [rising, single point]

O=S(=O)(Nc1ccccn1)c1ccc(Cl)cc1
AC50 [1]: 2.51 µM [falling, partial curve] | AC50 [2]: 1.26 µM [falling, full curve, poor fit]

Cc1cccc(CSc2nc3c(c(-c4cccs4)c2C#N)CN(C)CC3)c1
AC50 [1]: 0.0224 µM [rising, full curve, poor fit] | AC50 [2]: 1.12 µM [rising, partial curve, poor fit]

O=C(Nc1cccc(N=Cc2cc(Cl)cc(Br)c2O)c1)c1ccco1
AC50 [2]: 31.6 µM [rising, single point]

CCn1c2ccccc2c2cc(CN3CCN(S(=O)(=O)CC)CC3)ccc21
AC50 [2]: 15.8 µM [rising, partial curve]

Cc1c(Cl)c(=O)oc2cc(OCC(=O)NCc3cccs3)ccc12
AC50 [1]: 0.355 µM [falling, full curve, poor fit] | AC50 [2]: 0.316 µM [falling, partial curve]

CC(=O)n1c2c(c3ccccc31)OC(N)=C(C#N)C2c1cccc(Cl)c1Cl (stereo not drawn)
AC50 [2]: 7.94 µM [rising, partial curve]

COc1ccc(CCNC(=S)Nc2ccc(OC)cc2)cc1
AC50 [1]: 22.4 µM [rising, partial curve, poor fit] | AC50 [2]: 35.5 µM [rising, single point]

CCN(CC)c1ccc(S(=O)(=O)Nc2cc(Cl)ccc2Cl)cc1NC(=S)NC(=O)C1CCCC1
AC50 [1]: 12.6 µM [rising, partial curve] | AC50 [2]: 35.5 µM [rising, single point]

Cc1cccc(-c2nc(CS(=O)CC(=O)NCCCSC3CCCCC3)c(C)o2)c1 (stereo not drawn)
AC50 [2]: 15.8 µM [rising, single point]

CC(Oc1ccccc1)c1ccnc2nc(N3CCOCC3)nn12 (stereo not drawn)
AC50 [1]: 35.5 µM [falling, single point] | AC50 [2]: 35.5 µM [falling, single point]

CC(=O)c1ccc(NC(=O)/C=C/c2ccc(C)cc2)cc1
AC50 [1]: 35.5 µM [rising, single point] | AC50 [2]: 35.5 µM [rising, single point]

CCN(CC)CCOc1ccc2c(c1)C(=NNC(=O)c1ccccn1)c1cc(OCCN(CC)CC)ccc1-2
AC50 [1]: 35.5 µM [falling, single point] | AC50 [2]: 35.5 µM [falling, single point]

Cc1ccc2[nH]c(C)c(CCNC(=O)NC3CCCCC3)c2c1
AC50 [2]: 6.31 µM [falling, single point]

Cc1cc(NC(=O)c2cc3ccccc3o2)cc(C)c1OCC(=O)N1CCOCC1
AC50 [2]: 20 µM [rising, partial curve, poor fit]

CC(C)(C)c1ccc(C(=O)CC(Sc2ccc(Cl)cc2)C(=O)O)cc1 (stereo not drawn)
AC50 [1]: 0.02 µM [falling, full curve, poor fit]

Cc1ccc(OCC(=O)c2cc(C)n(CC(F)(F)F)c2C)c([N+](=O)[O-])n1
AC50 [1]: 11.2 µM [rising, partial curve, poor fit] | AC50 [2]: 11.2 µM [rising, partial curve]

CC[C@H]1OC(=O)[C@H](C)[C@@H](O[C@H]2C[C@@](C)(OC)[C@@H](O)[C@H](C)O2)[C@H](C)[C@@H](O[C@@H]2O[C@H](C)C[C@H](N(C)C)[C@H]2O)[C@](C)(O)C[C@@H](C)CN(C)[C@H](C)[C@@H](O)[C@]1(C)O
AC50 [2]: 0.631 µM [falling, partial curve, poor fit]

CCN(CC)CCNC(=O)CNC(=S)N(CCCN1CCOCC1)Cc1cccs1
AC50 [1]: 6.31 µM [falling, single point]

O=C(c1nn(-c2ccccc2)c(=O)c2ccccc12)N1CCN(c2ncccn2)CC1
AC50 [2]: 11.2 µM [rising, single point]

Cc1ccc(C(=O)C(C)Sc2nnc(N)s2)cc1 (stereo not drawn)
AC50 [1]: 0.02 µM [falling, full curve, poor fit]

COc1ccc(-c2cc(C(F)(F)F)nc(NC3CCCC3)n2)cc1OC
AC50 [1]: 22.4 µM [falling, single point] | AC50 [2]: 11.2 µM [falling, partial curve]

COCC(C)NC(=O)c1ccc(CN2CCc3ccccc3C2)cc1 (stereo not drawn)
AC50 [1]: 0.794 µM [falling, partial curve] | AC50 [2]: 0.0224 µM [falling, full curve]

Cc1cc(C)c(/C=C/c2onc(C)c2S(=O)(=O)N2CCC(C(=O)Nc3ccc(Cl)c(C(F)(F)F)c3)CC2)c(C)c1
AC50 [1]: 5.62 µM [rising, single point] | AC50 [2]: 20 µM [rising, single point]

COc1cccc(OC)c1OCc1cc(C2C3CCCC=C3C(C#N)=C(N)C2(C#N)C#N)c(C)cc1C (stereo not drawn)
AC50 [1]: 35.5 µM [falling, single point] | AC50 [2]: 22.4 µM [falling, single point]

CCOc1ccccc1NC(=O)C(OC(=O)c1ccc(N(C)C)cc1)c1ccccc1 (stereo not drawn)
AC50 [2]: 35.5 µM [rising, single point]

CC1Cc2ccccc2N1C(=O)CSc1nnc(-c2cccc(Cl)c2)o1 (stereo not drawn)
AC50 [1]: 0.141 µM [falling, full curve] | AC50 [2]: 0.0708 µM [falling, full curve, poor fit]

CCOc1ccccc1OCCCOc1ccc([N+](=O)[O-])cc1Cl
AC50 [1]: 15.8 µM [falling, single point] | AC50 [2]: 35.5 µM [falling, single point]

Cc1ccc(NC(=S)NC(C)CCc2ccccc2)cc1C (stereo not drawn)
AC50 [1]: 11.2 µM [rising, single point] | AC50 [2]: 22.4 µM [rising, single point]

Clc1cccc2sc(N3CCN(c4ccccc4)CC3)nc12
AC50 [2]: 28.2 µM [rising, single point]

Clc1ccc(OCc2nc(-c3ccncc3)no2)cc1
AC50 [2]: 31.6 µM [rising, single point]

Cc1ccc(C(=O)NCC(=O)OC(C)C(=O)Nc2ccc(N(C)C)cc2)cc1C (stereo not drawn)
AC50 [2]: 1.26 µM [falling, partial curve, poor fit]

C[C@@H]1CCC[C@H](C)N1NC(=O)c1ccc(Cl)c(S(N)(=O)=O)c1
AC50 [1]: 0.251 µM [falling, full curve] | AC50 [2]: 0.316 µM [falling, full curve, poor fit]

CCc1ccc(C(=O)/C=C/c2cnn(C)c2C)s1
AC50 [1]: 0.0224 µM [falling, full curve, poor fit] | AC50 [2]: 0.02 µM [falling, full curve, poor fit]

O=C(N1CCN(c2ccccc2)CC1)C12CC3CC(CC(C3)C1)C2
AC50 [1]: 15.8 µM [rising, single point] | AC50 [2]: 35.5 µM [rising, single point]

CSC1=NSC2=NC(=O)/C(=C/c3coc4ccc(O)cc4c3=O)C(=N)N12
AC50 [2]: 0.0282 µM [rising, full curve, poor fit]

Cc1ccc2c(c1)Oc1ccc(NC(=O)CCCl)cc1C(=O)N2
AC50 [1]: 0.0891 µM [falling, full curve] | AC50 [2]: 0.1 µM [falling, full curve]

COc1cccc2sc(Nc3nc(C)c(C(C)=O)s3)nc12
AC50 [2]: 20 µM [rising, single point]

CCOC(=O)c1c(C)oc2ccc(OCc3cc(C(=O)OC)oc3C)cc12
AC50 [2]: 17.8 µM [rising, single point]

Cc1nn(CCCC(=O)Nc2cc(Oc3ccc(F)cc3)cc([N+](=O)[O-])c2)c(C)c1[N+](=O)[O-]
AC50 [2]: 15.8 µM [rising, single point]
